# Laboratory results as given in PubChem BioAssay AID256 (DTP/NCI, 2004).
# The list is a part of this screen's results and no random one: it gathers tests that were run many times, whatever their T/C, doses with no T/C, and many T/C values between a quarter and a half above the control. Further doses and runs are listed elsewhere. T/C: endpoint of the treated group in % of that of the vehicle group. Some entries give survivors of the animals treated and no T/C: the source files T/C as zero there, which appears to mark a toxic dose or a test without result, not a measured value. Some doses without a T/C left all or most animals alive at the check, yet need not have been tolerated: survival well below the control is almost never listed, so the zero probably covers shortened survival too. Survivors were counted at the toxicity check, usually on the fifth day, unless a day is given; later deaths do not show. Schedules are NCI's codes, taken here to give the interval after Q, in days (D) or hours (H), and the number of doses after X. Some entries hold several experiments; their values stand side by side, smallest first. Where survival is the endpoint, this PubChem deposit counts one and a half times the control or more as active, and values a quarter to a half above the control carry no call in these data; other NCI protocols may use other cut-offs. Some structures stand for samples that the source files as different forms (salt, stereo form or complex); doses refer to the form tested.
# Tested on: CD2F1 mice, L1210 leukemia ip, survival T/C
# Assay: NCI In Vivo Anticancer Drug Screen. Data for tumor model L1210 Leukemia (intraperitoneal) in CD2F1 (CDF1) mice
# Details: higher T/C = longer survival
# Method in brief: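 Tumor-bearing mice (transplanted tumor) were split into treated and vehicle control groups, and the measured endpoint of each treated group was divided by that of its vehicle controls.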
# [1] = T/C endpoint: mean survival time, dose: 40.0 mg/kg/injection, schedule: Q01DX001 (ip), vehicle: saline
# [2] = T/C endpoint: mean survival time, dose: 80.0 mg/kg/injection, schedule: Q01DX001 (ip), vehicle: saline
# [3] = T/C endpoint: mean survival time, dose: 100.0 mg/kg/injection, schedule: Q04DX002 (ip), vehicle: saline with Tween-80
# [4] = T/C endpoint: mean survival time, dose: 200.0 mg/kg/injection, schedule: Q04DX002 (ip), vehicle: saline with Tween-80
# [5] = T/C endpoint: mean survival time, dose: 400.0 mg/kg/injection, schedule: Q04DX002 (ip), vehicle: saline with Tween-80
# [6] = T/C endpoint: mean survival time, dose: 400.0 mg/kg/injection, schedule: Q01DX009 (ip), vehicle: saline with Tween-80
# [7] = T/C endpoint: mean survival time, dose: 150.0 mg/kg/injection, schedule: Q01DX001 (ip), vehicle: saline
# [8] = T/C endpoint: mean survival time, dose: 300.0 mg/kg/injection, schedule: Q01DX001 (ip), vehicle: saline
# [9] = T/C endpoint: mean survival time, dose: 400.0 mg/kg/injection, schedule: Q04DX002 (ip), vehicle: Klucel (hydroxypropylcellulose) (HPC)
# [10] = T/C endpoint: mean survival time, dose: 400.0 mg/kg/injection, schedule: Q04DX003 (ip), vehicle: saline with Tween-80
# [11] = T/C endpoint: mean survival time, dose: 100.0 mg/kg/injection, schedule: Q04DX003 (ip), vehicle: saline with Tween-80
# [12] = T/C endpoint: mean survival time, dose: 200.0 mg/kg/injection, schedule: Q04DX003 (ip), vehicle: saline with Tween-80
compound,measurement,setting,value
COC1C(O)CC(OC2CC(OC3CC(O[C@@H]4C(=O)c5c(cc6cc(OC7CC(OC8CC(O)C(O)C(C)O8)C(O)C(C)O7)c(C)c(O)c6c5O)C[C@H]4[C@H](OC)C(=O)[C@@H](O)[C@@H](C)O)OC(C)C3O)OC(C)C2O)OC1C (stereo partly drawn),survivor count,"T/C endpoint: mean survival time, dose: 3.0 mg/kg/injection, schedule: Q01DX009 (ip), vehicle: saline",2 of 6
CC(N)CCC(C)(C)O (stereo not drawn),survivor count,"T/C endpoint: mean survival time, dose: 400.0 mg/kg/injection, schedule: Q04DX003 (ip), vehicle: saline",0 of 6
CC/C=N/NC(N)=S,survivor count,[1],0 of 6
same,survivor count,[2],0 of 6
O=S(=O)(O)c1ccc2ncccc2c1,survivor count,[3],0 of 3 and 1 of 3
same,survivor count,[4],0 of 3
same,survivor count,[5],0 of 3
N/C(=N\O)c1ncn(C2CCCC2)c1N,survivor count,"T/C endpoint: mean survival time, dose: 300.0 mg/kg/injection, schedule: Q01DX001 (ip), vehicle: other",3 of 6
Cc1ccc(S(=O)(=O)N/N=C/c2ccncc2)cc1,survivor count,"T/C endpoint: mean survival time, dose: 400.0 mg/kg/injection, schedule: Q01DX009 (ip), vehicle: Klucel (hydroxypropylcellulose) (HPC)",5 of 6
O=[N+]([O-])c1ccc(/C=N\N=C\c2ccco2)cc1,survivor count,"T/C endpoint: mean survival time, dose: 100.0 mg/kg/injection, schedule: Q01DX009 (ip), vehicle: saline with Tween-80",6 of 6
same,survivor count,[6],6 of 6
CCCCCCCCCCCCCCCC(=O)NCC[N+](C)(CC)CC,survivor count,[7],0 of 6
same,survivor count,[8],0 of 6
Nc1nc(N)c2nc(CNc3ccc(C(=O)NC(CCC(=O)O)C(=O)O)cc3)cnc2n1 (stereo not drawn),survivor count,"T/C endpoint: mean survival time, dose: 2.6 mg/kg/injection, schedule: Q01DX009 (ip), vehicle: alkali diluted with saline",6 of 6
same,survivor count,"T/C endpoint: mean survival time, dose: 4.0 mg/kg/injection, schedule: Q01DX009 (ip), vehicle: alkali diluted with saline",5 of 6
same,survivor count,"T/C endpoint: mean survival time, dose: 6.0 mg/kg/injection, schedule: Q01DX009 (ip), vehicle: alkali diluted with saline",5 of 6
Cc1cc(C)c2nc(-c3ccc(Cl)cc3)cc(C(=O)O)c2c1,survivor count,"T/C endpoint: mean survival time, dose: 200.0 mg/kg/injection, schedule: Q01DX001 (ip), vehicle: saline",1 of 6
same,survivor count,"T/C endpoint: mean survival time, dose: 400.0 mg/kg/injection, schedule: Q01DX001 (ip), vehicle: saline",0 of 6
same,survivor count,[9],2 of 3
O=C1c2ccccc2C(=O)c2c(NCCN3CCNCC3)ccc(NCCN3CCNCC3)c21,survivor count,"T/C endpoint: mean survival time, dose: 64.0 mg/kg/injection, schedule: Q01DX009 (ip), vehicle: acid diluted with saline",0 of 6
Nc1ccc(O)c2ccccc12,survivor count,"T/C endpoint: mean survival time, dose: 6.0 mg/kg/injection, schedule: Q04DX003 (ip), vehicle: other",1 of 6
Cn1c(N)c(C2OC(=O)c3ccccc32)c(=O)n(C)c1=O (stereo not drawn),survivor count,[9],2 of 3
CN(C)CCCCNc1ccc(NCCCCN(C)C)c2c1C(=O)c1c(O)ccc(O)c1C2=O,survivor count,"T/C endpoint: mean survival time, dose: 200.0 mg/kg/injection, schedule: Q01DX009 (ip), vehicle: saline",3 of 6
CN(CCC(=O)N(C)CCC1CCCCC1)CCC1CCCCC1,survivor count,[7],1 of 6
same,survivor count,[8],0 of 6
CCCCCC/C(C)=C(\C)c1cc(OC)cc(OC)c1,survivor count,[10],4 of 6
N#CSCc1cc(=O)c(O)co1,survivor count,"T/C endpoint: mean survival time, dose: 25.0 mg/kg/injection, schedule: Q04DX003 (ip), vehicle: saline with Tween-80",2 of 6
same,survivor count,[11],0 of 6
same,survivor count,[12],0 of 6
same,survivor count,[10],0 of 6
COc1ccccc1N1CCCSC1=Nc1ccccc1,survivor count,"T/C endpoint: mean survival time, dose: 400.0 mg/kg/injection, schedule: Q04DX002 (ip), vehicle: saline",0 of 3
CCCCCCCCCCCCOCC[N+](CCO)(CCO)Cc1ccccc1,survivor count,"T/C endpoint: mean survival time, dose: 5.0 mg/kg/injection, schedule: Q01DX009 (ip), vehicle: saline",1 of 6
same,survivor count,"T/C endpoint: mean survival time, dose: 10.0 mg/kg/injection, schedule: Q01DX009 (ip), vehicle: saline",0 of 6
same,survivor count,"T/C endpoint: mean survival time, dose: 20.0 mg/kg/injection, schedule: Q01DX009 (ip), vehicle: saline",0 of 6
same,survivor count,[11],0 of 6
same,survivor count,[12],0 of 6
same,survivor count,[10],0 of 6
Brc1ccc(C[N+]23CN4CN(CN(C4)C2)C3)cc1,survivor count,[6],0 of 6
CC1(C)N=C(N)N=C(N)N1c1cccc(C#N)c1,T/C,"T/C endpoint: mean survival time, dose: 56.3 mg/kg/injection, schedule: Q01DX009 (ip), vehicle: saline",135 % of control
same,survivor count,[8],0 of 6
N/C(CCSc1ccccc1N=Cc1ccccc1O)=N/O,survivor count,"T/C endpoint: mean survival time, dose: 100.0 mg/kg/injection, schedule: Q01DX009 (ip), vehicle: olive oil, sesame oil, peanut oil",4 of 6
CCc1cccc(CC)c1NC(N)=S,survivor count,[4],0 of 3
CCCCCCCCCCCC[n+]1ccc(C#N)cc1,survivor count,"T/C endpoint: mean survival time, dose: 37.5 mg/kg/injection, schedule: Q01DX001 (ip), vehicle: saline",3 of 6
O=C1C2CCCC3CCCC(C(=O)N1NC1CCCCC1)C32 (stereo not drawn),survivor count,"T/C endpoint: mean survival time, dose: 50.0 mg/kg/injection, schedule: Q01DX009 (ip), vehicle: saline with Tween-80",3 of 3
same,survivor count,"T/C endpoint: mean survival time, dose: 200.0 mg/kg/injection, schedule: Q01DX009 (ip), vehicle: saline with Tween-80",3 of 3
c1cc[c]([Sn]([NH]c2ncnc3[nH]cnc23)([NH]c2ncnc3[nH]cnc23)[c]2ccccc2)cc1,T/C,"T/C endpoint: median survival time, dose: 12.5 mg/kg/injection, schedule: Q01DX009 (ip), vehicle: saline",130 % of control
same,T/C,"T/C endpoint: median survival time, dose: 50.0 mg/kg/injection, schedule: Q01DX009 (ip), vehicle: saline",148 % of control
same,survivor count,"T/C endpoint: median survival time, dose: 400.0 mg/kg/injection, schedule: Q01DX009 (ip), vehicle: saline with Tween-80",2 of 6
same,survivor count,"T/C endpoint: median survival time, dose: 400.0 mg/kg/injection, schedule: Q01DX009 (ip), vehicle: suspension in saline",0 of 6
COc1ccc(CN(CCO)CCCCCCN(CCO)Cc2ccc(OC)cc2)cc1,survivor count,"T/C endpoint: median survival time, dose: 200.0 mg/kg/injection, schedule: Q04DX002 (ip), vehicle: saline",1 of 3
same,survivor count,"T/C endpoint: median survival time, dose: 400.0 mg/kg/injection, schedule: Q04DX002 (ip), vehicle: saline",0 of 3
CC(=O)NC(C(=O)O)C(C)C.CC(=O)NC(C(=O)O)C(C)C.[NH-]C1CCCCC1[NH-].[Pt+2] (stereo not drawn),T/C,"T/C endpoint: median survival time, dose: 50.0 mg/kg/injection, schedule: Q04DX003 (ip), vehicle: saline",127 % of control
same,T/C,"T/C endpoint: median survival time, dose: 100.0 mg/kg/injection, schedule: Q04DX003 (ip), vehicle: saline","125, 130, 137, 149 % of control"
Nc1nc(N)c2cc(CNc3ccc(C(=O)NC(CC(=O)O)C(=O)O)c(Cl)c3)ccc2n1 (stereo not drawn),T/C,"T/C endpoint: mean survival time, dose: 2.5 mg/kg/injection, schedule: Q01DX001 (ip), vehicle: saline",127 % of control
same,T/C,"T/C endpoint: mean survival time, dose: 9.0 mg/kg/injection, schedule: Q01DX001 (ip), vehicle: saline",146 % of control
same,T/C,"T/C endpoint: mean survival time, dose: 10.0 mg/kg/injection, schedule: Q01DX001 (ip), vehicle: saline",143 % of control
same,T/C,"T/C endpoint: mean survival time, dose: 13.0 mg/kg/injection, schedule: Q01DX001 (ip), vehicle: saline",146 % of control
same,T/C,"T/C endpoint: mean survival time, dose: 30.0 mg/kg/injection, schedule: Q01DX001 (ip), vehicle: saline",141 % of control
same,survivor count,[1],5 of 6
same,survivor count,"T/C endpoint: mean survival time, dose: 75.0 mg/kg/injection, schedule: Q01DX001 (ip), vehicle: saline",5 of 6
same,survivor count,[2],6 of 6
same,survivor count,[7],1 of 6
same,survivor count,[8],3 of 6
CC1OC(O[C@@H]2C=C3CC[C@@H]4[C@H](CC[C@]5(C)[C@@H](c6ccc(=O)oc6)CC[C@]45O)[C@@]3(C)CC2)C(O)C(O)C1O (stereo partly drawn),survivor count,"T/C endpoint: mean survival time, dose: 20.0 mg/kg/injection, schedule: Q01DX009 (sc), vehicle: steroid suspending solution",2 of 6
C=C1C(=C)C2C=CC1C1C3C(c4ccccn4)=NN=C(c4ccccn4)C3C21 (stereo not drawn),survivor count,[3],3 of 3
C[P+](c1ccc(F)cc1)(c1ccc(F)cc1)c1ccc(F)cc1,survivor count,[3],2 of 3
O=C(O)C1(Br)CCC1,survivor count,[4],1 of 3
same,survivor count,[5],0 of 3
